Assay [1] deals with T1, FLAG-PER2(S662D) expressed in HCT116 p53+/+ cells (human) (UniProt O15055).
T1 sequence: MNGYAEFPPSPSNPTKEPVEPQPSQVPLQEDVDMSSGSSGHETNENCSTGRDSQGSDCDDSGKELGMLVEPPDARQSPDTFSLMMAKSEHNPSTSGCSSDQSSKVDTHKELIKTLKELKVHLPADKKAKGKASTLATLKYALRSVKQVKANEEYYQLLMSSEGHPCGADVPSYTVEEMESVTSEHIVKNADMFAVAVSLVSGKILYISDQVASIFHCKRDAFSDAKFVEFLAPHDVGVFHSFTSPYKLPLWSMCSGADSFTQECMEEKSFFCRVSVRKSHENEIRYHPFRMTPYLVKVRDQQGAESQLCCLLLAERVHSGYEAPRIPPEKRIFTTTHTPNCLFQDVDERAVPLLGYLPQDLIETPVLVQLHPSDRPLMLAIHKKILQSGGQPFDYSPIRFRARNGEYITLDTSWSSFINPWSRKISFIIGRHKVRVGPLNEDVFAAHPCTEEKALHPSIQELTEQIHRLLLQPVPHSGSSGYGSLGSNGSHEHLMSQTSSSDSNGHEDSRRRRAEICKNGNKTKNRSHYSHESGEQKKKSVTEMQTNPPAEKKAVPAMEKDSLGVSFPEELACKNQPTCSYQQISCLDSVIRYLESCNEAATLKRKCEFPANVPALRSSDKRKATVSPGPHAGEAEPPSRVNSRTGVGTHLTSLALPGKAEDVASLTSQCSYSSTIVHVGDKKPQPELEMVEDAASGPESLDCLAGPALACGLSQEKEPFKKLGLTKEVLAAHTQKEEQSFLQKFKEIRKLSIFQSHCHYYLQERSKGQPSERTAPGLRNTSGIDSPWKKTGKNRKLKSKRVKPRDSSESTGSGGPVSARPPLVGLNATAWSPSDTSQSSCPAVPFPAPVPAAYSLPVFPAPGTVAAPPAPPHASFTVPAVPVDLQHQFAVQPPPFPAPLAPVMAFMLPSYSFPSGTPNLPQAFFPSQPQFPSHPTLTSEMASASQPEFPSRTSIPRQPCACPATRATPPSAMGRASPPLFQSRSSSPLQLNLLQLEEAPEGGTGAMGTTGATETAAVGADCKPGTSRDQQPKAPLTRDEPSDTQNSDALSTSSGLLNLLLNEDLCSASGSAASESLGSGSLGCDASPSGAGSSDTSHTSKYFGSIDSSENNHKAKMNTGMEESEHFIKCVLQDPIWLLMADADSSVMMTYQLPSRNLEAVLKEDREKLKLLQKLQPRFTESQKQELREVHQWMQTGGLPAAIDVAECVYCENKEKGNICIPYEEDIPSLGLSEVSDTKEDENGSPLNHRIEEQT
As to the kind of experiment: co-IP.

Sequences of proteins named here, by UniProt entry; tags and fusion partners are left off.
UniProt Q00987: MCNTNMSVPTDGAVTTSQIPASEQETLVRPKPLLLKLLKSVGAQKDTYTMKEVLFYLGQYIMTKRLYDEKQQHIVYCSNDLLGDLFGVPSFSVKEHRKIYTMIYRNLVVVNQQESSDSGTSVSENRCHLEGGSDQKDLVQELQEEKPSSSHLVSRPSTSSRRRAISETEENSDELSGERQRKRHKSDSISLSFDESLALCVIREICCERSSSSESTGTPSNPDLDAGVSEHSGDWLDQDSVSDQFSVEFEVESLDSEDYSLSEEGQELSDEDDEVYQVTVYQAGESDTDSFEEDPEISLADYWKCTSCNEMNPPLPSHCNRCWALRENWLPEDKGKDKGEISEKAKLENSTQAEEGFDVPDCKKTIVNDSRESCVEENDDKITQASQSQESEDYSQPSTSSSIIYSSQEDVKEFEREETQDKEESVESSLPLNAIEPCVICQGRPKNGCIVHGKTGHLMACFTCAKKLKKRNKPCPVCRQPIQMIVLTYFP

The target in assay [2] is T2, FLAG-PER2(S480A) expressed in HCT116 p53+/+ cells (human) (UniProt O15055).
T2 sequence: T1 sequence with S480A, D662S
The experiment in a line: co-IP.

We go through one substance from publication doi:10.1101/286708.

Positions count from the first letter of the chain named. No constants are given. Whether binding was seen depends on the method and setting. In cells and extracts the contact can be indirect. Some results given as binding are weak or reduced against the parent protein; the word gives no strength. Where a sequence is shown, tags or fusion partners need not be part of it.

As to “endogenous MDM2 of HCT116 p53+/+ cells (from UniProt Q00987 1-491)”, the binding entry in assay [1] and in assay [2] was “binds” throughout.
